PubChem BioAssay AID743121 – NCATS, 2013

- Aim: 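Partners whose loss is lethal together with topoisomerase I blockade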 (primary screen)
- Cells: MDA-MB-231 cells, a human breast cancer line
- Reagent: single siRNA against human genes, 20 nM siRNA (0.8 pmol per well)
- Duration: 120 h (drug added 48 h after transfection, read 72 h later)
- Conditions: camptothecin 20 nM (about EC30) for 72 h; vehicle 0.1% DMSO in parallel plates
- Detection: 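Cell viability by ATP luminescence (CellTiter-Glo) as % of non-targeting siRNA wells, and the log2 ratio of viability without drug over viability with camptothecin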
- Reading the numbers: log2 vehicle/camptothecin viability: higher = stronger sensitisation to camptothecin; viability with camptothecin: higher = more viable cells
- Rule for the call: 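Each gene scored by redundant siRNA activity (RSA) over its individual siRNA ratios; a gene is called active at p < 0.001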
This is one part, drawn at random, of about 26,000 deposited reagents. 167 of all reagents (0.63%) count as active. 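Calls are per gene from RSA p-values that are not deposited; an individual active-marked siRNA can sensitise only weakly.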 A number with no mark means an inactive call. The numbers tell different reagents against one gene apart. Further read-outs or replicates are left out here. No sequences are given here.

Depletion of RAB9B #1 resulted in: log2 vehicle/camptothecin viability -0.255; viability with camptothecin (% of control) = 123.
Knock-down of RAB9B #2 gave: log2 vehicle/camptothecin viability 0.17; viability with camptothecin (% of control) = 85.5.
Against RAB9B #3 the deposit lists log2 vehicle/camptothecin viability -0.238; viability with camptothecin (% of control) = 58.2.
With knock-down of RAB9B #4 the results were log2 vehicle/camptothecin viability -0.142; viability with camptothecin (% of control) = 93.8.
KDM4B #1 scored log2 vehicle/camptothecin viability -0.276; viability with camptothecin (% of control) = 102.
Knock-down of KDM4B #2 came out at: log2 vehicle/camptothecin viability -0.186; viability with camptothecin (% of control) = 93.6.
With knock-down of KDM4B #3, the screen gave log2 vehicle/camptothecin viability -0.215; viability with camptothecin (% of control) = 11.5.
Depletion of KDM4B #4 resulted in: log2 vehicle/camptothecin viability -0.232; viability with camptothecin (% of control) = 101.
CALM3 #1 scored log2 vehicle/camptothecin viability -0.387; viability with camptothecin (% of control) = 57.4.
With knock-down of CALM3 #2 the results were log2 vehicle/camptothecin viability 0.0471; viability with camptothecin (% of control) = 87.8.
CALM3 #3 showed log2 vehicle/camptothecin viability 0.0315; viability with camptothecin (% of control) = 91.2.
After knock-down of CALM3 #4 the results were log2 vehicle/camptothecin viability 0.0228; viability with camptothecin (% of control) = 111.
After knock-down of CMPK1 #1, the record shows log2 vehicle/camptothecin viability 0.0751; viability with camptothecin (% of control) = 45.7.
With knock-down of CMPK1 #2 the results were log2 vehicle/camptothecin viability -0.327; viability with camptothecin (% of control) = 40.3.
For CMPK1 #3, the entry reads log2 vehicle/camptothecin viability -0.314; viability with camptothecin (% of control) = 103.
With knock-down of CMPK1 #4, the screen gave log2 vehicle/camptothecin viability -0.017; viability with camptothecin (% of control) = 97.5.

Records listed so far whose target name begins with K or k:
KDM4B #1 | log2 vehicle/camptothecin viability = -0.276; viability with camptothecin (% of control) = 102
KDM4B #2 | log2 vehicle/camptothecin viability = -0.186; viability with camptothecin (% of control) = 93.6
KDM4B #3 | log2 vehicle/camptothecin viability = -0.215; viability with camptothecin (% of control) = 11.5
KDM4B #4 | log2 vehicle/camptothecin viability = -0.232; viability with camptothecin (% of control) = 101

The results go on:
With knock-down of EMX1 #1 the results were log2 vehicle/camptothecin viability -0.313; viability with camptothecin (% of control) = 44.6.
For EMX1 #2, the values are log2 vehicle/camptothecin viability -0.148; viability with camptothecin (% of control) = 103.
EMX1 #3 showed log2 vehicle/camptothecin viability 0.0463; viability with camptothecin (% of control) = 59.5.
EMX1 #4 gave log2 vehicle/camptothecin viability -0.0937; viability with camptothecin (% of control) = 85.8.
Against AKT1 #1, the entry reads log2 vehicle/camptothecin viability 0.00788; viability with camptothecin (% of control) = 38.
AKT1 #2 scored log2 vehicle/camptothecin viability 0.276; viability with camptothecin (% of control) = 38.6.
After knock-down of AKT1 #3 the results were log2 vehicle/camptothecin viability 0.192; viability with camptothecin (% of control) = 74.8.
Silencing of AKT1 #4 resulted in: log2 vehicle/camptothecin viability -0.256; viability with camptothecin (% of control) = 92.5.
